Source: the supplement of paper PMC10849652
The other results are listed elsewhere or left out.

Protein sequences, listed by entry. Tags and fused reporters are not part of them. Lines headed by an entry give the natural chain unless they say otherwise; changes in a name come on top.
UniProt Q9H7Z7: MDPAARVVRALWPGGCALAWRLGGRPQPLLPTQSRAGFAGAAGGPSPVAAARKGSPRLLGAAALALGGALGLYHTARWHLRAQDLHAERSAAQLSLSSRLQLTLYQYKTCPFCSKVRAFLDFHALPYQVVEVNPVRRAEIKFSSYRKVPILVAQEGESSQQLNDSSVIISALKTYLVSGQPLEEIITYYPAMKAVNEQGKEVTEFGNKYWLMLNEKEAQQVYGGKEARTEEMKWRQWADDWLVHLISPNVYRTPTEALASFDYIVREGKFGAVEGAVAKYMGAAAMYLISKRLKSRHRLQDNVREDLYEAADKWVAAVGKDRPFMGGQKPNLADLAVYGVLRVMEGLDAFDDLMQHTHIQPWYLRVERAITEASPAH
UniProt O00487, whole entry, looked up: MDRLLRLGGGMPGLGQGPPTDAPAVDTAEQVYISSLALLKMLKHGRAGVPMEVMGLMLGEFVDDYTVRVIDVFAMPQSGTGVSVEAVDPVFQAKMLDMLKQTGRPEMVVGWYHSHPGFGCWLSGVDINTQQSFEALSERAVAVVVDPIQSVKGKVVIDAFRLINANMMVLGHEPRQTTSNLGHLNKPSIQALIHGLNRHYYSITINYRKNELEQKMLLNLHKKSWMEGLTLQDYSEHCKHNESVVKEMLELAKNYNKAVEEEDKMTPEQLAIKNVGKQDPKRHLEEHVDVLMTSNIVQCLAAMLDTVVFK
UniProt P49720: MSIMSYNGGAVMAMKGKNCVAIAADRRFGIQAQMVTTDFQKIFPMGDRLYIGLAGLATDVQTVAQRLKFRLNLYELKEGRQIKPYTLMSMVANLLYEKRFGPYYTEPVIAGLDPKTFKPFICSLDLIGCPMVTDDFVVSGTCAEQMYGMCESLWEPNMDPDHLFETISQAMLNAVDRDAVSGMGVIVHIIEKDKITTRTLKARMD
UniProt O43242, whole entry, looked up: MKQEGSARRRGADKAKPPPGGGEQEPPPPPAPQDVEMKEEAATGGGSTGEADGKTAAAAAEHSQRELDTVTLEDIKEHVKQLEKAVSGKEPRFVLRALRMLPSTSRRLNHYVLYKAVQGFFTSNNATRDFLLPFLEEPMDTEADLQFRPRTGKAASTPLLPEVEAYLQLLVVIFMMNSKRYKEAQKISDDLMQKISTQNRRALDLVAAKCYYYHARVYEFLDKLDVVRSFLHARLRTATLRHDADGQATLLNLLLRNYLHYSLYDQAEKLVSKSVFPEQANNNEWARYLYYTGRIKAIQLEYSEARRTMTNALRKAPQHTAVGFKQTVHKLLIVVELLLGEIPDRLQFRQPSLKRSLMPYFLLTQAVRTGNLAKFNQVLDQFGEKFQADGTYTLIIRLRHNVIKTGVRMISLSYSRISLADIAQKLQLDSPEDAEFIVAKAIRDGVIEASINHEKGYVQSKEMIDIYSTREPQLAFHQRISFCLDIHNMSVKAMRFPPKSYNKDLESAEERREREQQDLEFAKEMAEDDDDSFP
UniProt Q03393: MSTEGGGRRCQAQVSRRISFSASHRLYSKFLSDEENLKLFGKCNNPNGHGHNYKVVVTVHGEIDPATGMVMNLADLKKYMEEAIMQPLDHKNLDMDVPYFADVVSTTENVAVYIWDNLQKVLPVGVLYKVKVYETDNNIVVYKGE
UniProt P20618: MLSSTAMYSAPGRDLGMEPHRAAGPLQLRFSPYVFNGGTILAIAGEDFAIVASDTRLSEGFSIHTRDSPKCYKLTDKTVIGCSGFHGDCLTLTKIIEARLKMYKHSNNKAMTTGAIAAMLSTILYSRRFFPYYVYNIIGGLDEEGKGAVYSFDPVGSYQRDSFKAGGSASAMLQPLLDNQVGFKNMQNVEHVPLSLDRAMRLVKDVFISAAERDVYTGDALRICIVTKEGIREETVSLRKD
UniProt Q92530: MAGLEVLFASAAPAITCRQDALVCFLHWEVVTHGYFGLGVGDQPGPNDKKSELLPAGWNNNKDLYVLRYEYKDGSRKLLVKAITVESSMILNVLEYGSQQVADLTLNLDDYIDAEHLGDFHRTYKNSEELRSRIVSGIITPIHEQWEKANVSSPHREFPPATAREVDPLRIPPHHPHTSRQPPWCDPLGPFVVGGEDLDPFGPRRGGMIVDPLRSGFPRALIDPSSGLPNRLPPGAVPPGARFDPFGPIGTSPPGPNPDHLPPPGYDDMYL
UniProt Q9UL46, whole entry, looked up: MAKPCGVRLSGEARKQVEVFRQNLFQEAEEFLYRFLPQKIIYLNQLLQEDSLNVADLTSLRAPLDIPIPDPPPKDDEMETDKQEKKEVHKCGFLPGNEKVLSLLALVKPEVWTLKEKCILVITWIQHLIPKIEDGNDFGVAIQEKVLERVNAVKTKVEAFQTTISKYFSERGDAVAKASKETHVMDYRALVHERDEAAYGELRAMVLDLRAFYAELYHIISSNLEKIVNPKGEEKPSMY
UniProt P60900, whole entry, looked up: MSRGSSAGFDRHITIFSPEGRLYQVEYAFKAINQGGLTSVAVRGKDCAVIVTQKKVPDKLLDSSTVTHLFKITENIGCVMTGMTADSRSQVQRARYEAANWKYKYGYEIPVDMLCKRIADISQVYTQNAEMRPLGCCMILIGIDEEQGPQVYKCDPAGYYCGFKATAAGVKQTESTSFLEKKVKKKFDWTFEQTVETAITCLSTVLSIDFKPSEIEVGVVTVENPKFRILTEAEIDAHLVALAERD
UniProt Q5JSZ5: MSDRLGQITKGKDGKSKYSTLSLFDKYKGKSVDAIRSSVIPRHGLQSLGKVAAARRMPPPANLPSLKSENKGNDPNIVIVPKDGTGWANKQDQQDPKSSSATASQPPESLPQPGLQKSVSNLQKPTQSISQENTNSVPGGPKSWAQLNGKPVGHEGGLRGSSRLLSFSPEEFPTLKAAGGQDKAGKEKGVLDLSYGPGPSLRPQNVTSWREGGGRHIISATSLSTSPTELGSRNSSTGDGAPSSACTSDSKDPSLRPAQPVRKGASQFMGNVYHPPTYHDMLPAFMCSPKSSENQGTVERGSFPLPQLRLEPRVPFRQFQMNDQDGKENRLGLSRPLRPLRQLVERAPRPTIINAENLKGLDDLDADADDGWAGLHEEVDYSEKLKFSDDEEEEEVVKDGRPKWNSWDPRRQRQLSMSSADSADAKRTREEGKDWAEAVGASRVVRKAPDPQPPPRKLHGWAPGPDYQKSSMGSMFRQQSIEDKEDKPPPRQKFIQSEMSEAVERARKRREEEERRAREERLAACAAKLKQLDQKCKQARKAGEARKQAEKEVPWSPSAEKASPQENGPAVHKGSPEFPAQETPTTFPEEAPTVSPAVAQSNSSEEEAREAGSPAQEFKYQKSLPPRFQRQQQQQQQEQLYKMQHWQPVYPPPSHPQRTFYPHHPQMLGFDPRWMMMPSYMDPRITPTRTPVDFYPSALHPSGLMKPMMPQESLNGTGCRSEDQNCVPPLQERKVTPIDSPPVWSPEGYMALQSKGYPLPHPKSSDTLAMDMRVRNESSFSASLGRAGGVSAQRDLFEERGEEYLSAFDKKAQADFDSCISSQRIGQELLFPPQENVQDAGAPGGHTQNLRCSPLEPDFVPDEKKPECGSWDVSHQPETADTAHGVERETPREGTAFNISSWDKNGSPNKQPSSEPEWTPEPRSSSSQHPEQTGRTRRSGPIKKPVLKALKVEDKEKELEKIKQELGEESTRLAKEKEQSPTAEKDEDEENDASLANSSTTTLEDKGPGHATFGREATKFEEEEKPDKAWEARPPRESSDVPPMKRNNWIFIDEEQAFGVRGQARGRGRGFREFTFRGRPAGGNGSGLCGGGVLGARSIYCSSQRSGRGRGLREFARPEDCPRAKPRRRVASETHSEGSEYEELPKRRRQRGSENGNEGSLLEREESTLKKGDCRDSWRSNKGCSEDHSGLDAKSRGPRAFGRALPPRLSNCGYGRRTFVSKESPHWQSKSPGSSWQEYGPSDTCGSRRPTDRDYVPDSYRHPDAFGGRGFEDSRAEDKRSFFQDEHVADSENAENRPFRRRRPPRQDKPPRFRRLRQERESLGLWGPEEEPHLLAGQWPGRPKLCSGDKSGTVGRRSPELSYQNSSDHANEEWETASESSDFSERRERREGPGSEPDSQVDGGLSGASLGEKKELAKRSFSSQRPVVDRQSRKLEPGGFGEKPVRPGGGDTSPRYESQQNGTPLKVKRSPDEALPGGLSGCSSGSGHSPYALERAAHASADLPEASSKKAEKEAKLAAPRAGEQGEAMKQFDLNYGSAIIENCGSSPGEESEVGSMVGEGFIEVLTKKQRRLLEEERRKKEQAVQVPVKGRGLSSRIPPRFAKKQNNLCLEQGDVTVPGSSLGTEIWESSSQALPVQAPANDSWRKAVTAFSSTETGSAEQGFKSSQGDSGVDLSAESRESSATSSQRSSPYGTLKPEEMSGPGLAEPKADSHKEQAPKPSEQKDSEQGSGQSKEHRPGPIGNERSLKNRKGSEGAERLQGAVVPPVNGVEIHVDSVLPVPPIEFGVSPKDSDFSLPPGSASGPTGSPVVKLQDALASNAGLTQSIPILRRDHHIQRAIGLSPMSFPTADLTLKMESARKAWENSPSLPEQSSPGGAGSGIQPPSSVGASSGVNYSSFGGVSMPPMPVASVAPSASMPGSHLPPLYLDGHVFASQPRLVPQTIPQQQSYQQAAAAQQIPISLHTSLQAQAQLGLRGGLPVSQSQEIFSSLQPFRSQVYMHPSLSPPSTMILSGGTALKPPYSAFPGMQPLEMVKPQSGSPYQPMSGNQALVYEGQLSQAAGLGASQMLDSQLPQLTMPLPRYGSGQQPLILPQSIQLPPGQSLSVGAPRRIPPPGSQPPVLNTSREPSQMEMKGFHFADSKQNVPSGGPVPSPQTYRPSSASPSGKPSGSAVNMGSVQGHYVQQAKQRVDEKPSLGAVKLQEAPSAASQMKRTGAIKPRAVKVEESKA
UniProt O95456: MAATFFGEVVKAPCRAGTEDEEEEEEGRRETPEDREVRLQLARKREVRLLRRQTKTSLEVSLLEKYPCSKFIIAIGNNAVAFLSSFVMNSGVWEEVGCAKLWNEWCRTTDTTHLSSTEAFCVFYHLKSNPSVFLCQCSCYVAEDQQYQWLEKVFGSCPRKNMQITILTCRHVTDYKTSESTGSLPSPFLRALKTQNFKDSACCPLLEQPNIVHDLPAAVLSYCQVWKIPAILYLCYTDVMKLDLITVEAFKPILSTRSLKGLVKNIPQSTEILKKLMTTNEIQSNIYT
UniProt O95997: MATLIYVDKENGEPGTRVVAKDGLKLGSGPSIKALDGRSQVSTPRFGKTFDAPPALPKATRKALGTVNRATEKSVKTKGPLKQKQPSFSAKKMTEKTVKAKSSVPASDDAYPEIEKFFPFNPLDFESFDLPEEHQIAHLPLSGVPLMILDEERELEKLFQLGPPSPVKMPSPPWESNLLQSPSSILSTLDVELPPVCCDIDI
UniProt Q9BZE2: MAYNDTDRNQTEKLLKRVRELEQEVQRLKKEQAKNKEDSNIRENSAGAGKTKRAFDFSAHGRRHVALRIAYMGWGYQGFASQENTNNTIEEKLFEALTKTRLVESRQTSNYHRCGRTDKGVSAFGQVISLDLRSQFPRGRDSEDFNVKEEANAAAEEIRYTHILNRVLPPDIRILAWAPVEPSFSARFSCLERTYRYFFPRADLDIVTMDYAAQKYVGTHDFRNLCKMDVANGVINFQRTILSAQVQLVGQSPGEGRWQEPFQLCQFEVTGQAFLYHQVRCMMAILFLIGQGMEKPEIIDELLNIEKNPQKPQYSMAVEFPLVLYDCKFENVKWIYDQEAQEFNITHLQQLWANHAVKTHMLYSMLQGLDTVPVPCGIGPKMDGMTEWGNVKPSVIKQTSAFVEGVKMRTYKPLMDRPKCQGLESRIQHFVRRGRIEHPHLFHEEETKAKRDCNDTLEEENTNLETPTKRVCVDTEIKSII
UniProt P17980, whole entry, looked up: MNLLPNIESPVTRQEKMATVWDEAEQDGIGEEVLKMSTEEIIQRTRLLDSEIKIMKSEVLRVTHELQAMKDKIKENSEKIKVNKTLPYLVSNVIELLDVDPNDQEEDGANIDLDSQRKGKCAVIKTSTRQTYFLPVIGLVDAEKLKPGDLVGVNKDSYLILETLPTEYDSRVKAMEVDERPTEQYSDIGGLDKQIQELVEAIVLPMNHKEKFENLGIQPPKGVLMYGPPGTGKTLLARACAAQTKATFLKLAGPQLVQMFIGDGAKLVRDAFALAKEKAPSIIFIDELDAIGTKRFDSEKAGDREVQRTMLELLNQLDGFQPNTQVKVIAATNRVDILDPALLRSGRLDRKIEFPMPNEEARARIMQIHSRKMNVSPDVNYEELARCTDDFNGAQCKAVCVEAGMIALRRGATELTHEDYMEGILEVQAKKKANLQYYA
UniProt P20962: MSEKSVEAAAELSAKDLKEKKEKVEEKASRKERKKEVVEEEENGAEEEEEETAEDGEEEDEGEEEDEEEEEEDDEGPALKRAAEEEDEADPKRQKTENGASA
UniProt P61289: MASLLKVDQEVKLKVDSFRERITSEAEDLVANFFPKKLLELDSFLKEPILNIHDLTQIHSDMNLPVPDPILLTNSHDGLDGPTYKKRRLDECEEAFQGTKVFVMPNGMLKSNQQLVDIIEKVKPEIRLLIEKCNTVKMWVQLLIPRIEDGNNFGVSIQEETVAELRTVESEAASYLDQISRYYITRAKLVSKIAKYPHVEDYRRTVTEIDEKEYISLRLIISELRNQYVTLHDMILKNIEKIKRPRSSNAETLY

Experiments:
Assay in all cases: log2 fold change, soluble protein after heating vs DMSO (PISA); higher = thermal stabilisation; K562 lysate, 10 uM; active = over 0.2 and 3.5 SD of the protein, either way, in both replicates (recomputed)
lapatinib = compound: CS(=O)(=O)CCNCc1ccc(-c2ccc3ncnc(Nc4ccc(OCc5cccc(F)c5)c(Cl)c4)c3c2)o1 [lapatinib]
Method in brief: (§1)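 Values give the log-two fold change in thermal stability against solvent controls, from duplicates. Crude K562 extract at 1 mg/mL protein, made by dounce homogenisation in PBS pH 7.4 with 1 mM MgCl2, was treated with 10 μM compound for 30 min. After 3 min heating across 48°C-58°C, aliquots were pooled, adjusted to 0.5% NP-40 at 4°C and centrifuged at 21,000xg for 90 min. The supernatant was measured by TMTpro 16plex LC-MS/MS with channel sums equalised.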

pictilisib = compound: CS(=O)(=O)N1CCN(Cc2cc3nc(-c4cccc5[nH]ncc45)nc(N4CCOCC4)c3s2)CC1 [pictilisib]
Method in brief: as §1

crizotinib = compound: C[C@@H](Oc1cc(-c2cnn(C3CCNCC3)c2)cnc1N)c1c(Cl)ccc(F)c1Cl [crizotinib]
Method in brief: as §1

[1] = compound: C[C@H](C1=CC=C(C=C1)C(=O)NC2=C3C=CNC3=NC=C2)N
Method in brief: as §1

duvelisib = compound: C[C@H](Nc1ncnc2nc[nH]c12)c1cc2cccc(Cl)c2c(=O)n1-c1ccccc1 [duvelisib]
Method in brief: as §1

gandotinib = compound: Cc1cc(Nc2cc(CN3CCOCC3)c3nc(C)c(Cc4ccc(Cl)cc4F)n3n2)n[nH]1 [gandotinib]
Method in brief: as §1

tozasertib = compound: Cc1cc(Nc2cc(N3CCN(C)CC3)nc(Sc3ccc(NC(=O)C4CC4)cc3)n2)n[nH]1 [tozasertib]
Method in brief: as §1

doramapimod = compound: Cc1ccc(-n2nc(C(C)(C)C)cc2NC(=O)Nc2ccc(OCCN3CCOCC3)c3ccccc23)cc1 [doramapimod]
Method in brief: as §1

bafetinib = compound: Cc1ccc(NC(=O)c2ccc(CN3CC[C@H](N(C)C)C3)c(C(F)(F)F)c2)cc1Nc1nccc(-c2cncnc2)n1 [bafetinib]
Method in brief: as §1

[2] = compound: Cc1cccc(CC(=O)N2CCc3c2ccc(-c2cn(C)c4ncnc(N)c24)c3F)n1
Method in brief: as §1

| Target | log2 fold change (lapatinib) | log2 fold change (pictilisib) | log2 fold change (crizotinib) | log2 fold change [1] | log2 fold change (duvelisib) | log2 fold change (gandotinib) | log2 fold change (tozasertib) | log2 fold change (doramapimod) | log2 fold change (bafetinib) | log2 fold change [2] |
| --- | --- | --- | --- | --- | --- | --- | --- | --- | --- | --- |
| PTGES2 (UniProt Q9H7Z7) | active: 0.637 | inactive: 0.153 | inactive: -0.052 | inactive: -0.013 | inactive: 0.029 | inactive: 0.236 | inactive: 0.329 | inactive: 0.341 | inactive: 0.176 | inactive: 0.009 |
| PSMD14 (UniProt O00487) | inactive: 0.003 | inactive: 0.005 | inactive: 0.015 | inactive: 0.014 | inactive: 0 | inactive: -0.067 | inactive: -0.003 | inactive: 0.003 | inactive: 0.021 | inactive: 0.001 |
| PSMB3 (UniProt P49720) | inactive: -0.019 | inactive: -0.038 | inactive: 0.04 | inactive: -0.032 | inactive: 0.044 | inactive: 0.062 | inactive: 0.037 | inactive: -0.003 | inactive: 0.036 | inactive: 0.036 |
| PSMD3 (UniProt O43242) | inactive: -0.032 | inactive: 0.005 | inactive: 0.004 | inactive: -0.008 | inactive: -0.011 | inactive: -0.044 | inactive: -0.018 | inactive: -0.005 | inactive: -0.04 | inactive: -0.016 |
| PTS (UniProt Q03393) | inactive: -0.018 | inactive: 0.008 | inactive: 0.051 | inactive: -0.024 | inactive: 0.051 | inactive: -0.039 | inactive: 0.031 | inactive: -0.069 | inactive: 0 | inactive: 0.05 |
| PSMB1 (UniProt P20618) | inactive: -0.011 | inactive: 0.006 | inactive: 0.007 | inactive: -0.003 | inactive: -0.006 | inactive: 0.03 | inactive: 0.019 | inactive: -0.009 | inactive: -0.031 | inactive: 0.007 |
| PSMB7 (UniProt Q99436) | inactive: -0.029 | inactive: 0.007 | inactive: 0 | inactive: -0.03 | inactive: 0.046 | inactive: 0.027 | inactive: -0.017 | inactive: 0.014 | inactive: 0.007 | inactive: -0.021 |
| PTPRC (UniProt P08575) | inactive: -0.005 | inactive: -0.007 | inactive: -0.001 | inactive: -0.07 | inactive: 0.036 | inactive: 0.032 | inactive: -0.007 | inactive: 0.008 | inactive: 0.016 | inactive: 0.04 |
| PSMF1 (UniProt Q92530) | inactive: -0.004 | inactive: 0.068 | inactive: -0.026 | inactive: -0.193 | inactive: -0.011 | inactive: 0.182 | inactive: 0.003 | inactive: 0.062 | inactive: 0.051 | inactive: 0.144 |
| PSME2 (UniProt Q9UL46) | inactive: 0.006 | inactive: 0.047 | inactive: 0.009 | inactive: -0.074 | inactive: 0.062 | inactive: 0.093 | inactive: 0.028 | inactive: -0.001 | inactive: 0.001 | inactive: 0.105 |
| PWP1 (UniProt Q13610) | inactive: 0.041 | inactive: -0.001 | inactive: 0.003 | active: 0.488 | inactive: 0.055 | inactive: -0.052 | inactive: 0 | inactive: -0.125 | inactive: 0.032 | inactive: -0.084 |
| PSMD5 (UniProt Q16401) | inactive: -0.006 | inactive: -0.003 | inactive: -0.019 | inactive: 0.03 | inactive: -0.007 | inactive: -0.067 | inactive: -0.012 | inactive: 0.015 | inactive: 0.007 | inactive: 0.017 |
| PSMA6 (UniProt P60900) | inactive: -0.022 | inactive: 0.002 | inactive: 0.013 | inactive: 0.021 | inactive: -0.01 | inactive: 0.019 | inactive: -0.012 | inactive: -0.011 | inactive: 0.106 | inactive: -0.054 |
| PSMA7 (UniProt H0Y586) | inactive: -0.036 | inactive: -0.007 | inactive: -0.003 | inactive: 0.052 | – | inactive: 0.17 | – | inactive: 0.089 | inactive: -0.141 | inactive: -0.141 |
| PRRC2B (UniProt Q5JSZ5) | inactive: 0.103 | inactive: -0.036 | inactive: 0.091 | inactive: -0.005 | inactive: -0.009 | inactive: 0.04 | inactive: 0.018 | inactive: -0.044 | inactive: 0.075 | inactive: -0.017 |
| PRPS1 (UniProt B1ALA9) | inactive: -0.004 | inactive: -0.014 | inactive: 0.015 | inactive: -0.001 | inactive: 0.016 | inactive: -0.025 | inactive: 0.034 | inactive: -0.035 | inactive: -0.036 | inactive: 0.016 |
| PSMG1 (UniProt O95456) | inactive: 0.012 | inactive: 0.057 | inactive: 0.034 | inactive: 0.001 | inactive: 0.093 | inactive: -0.01 | inactive: 0.052 | inactive: 0.039 | inactive: 0.06 | inactive: -0.026 |
| PTTG1 (UniProt O95997) | inactive: 0.029 | inactive: -0.085 | inactive: -0.136 | inactive: -0.041 | inactive: 0.005 | inactive: 0.143 | inactive: 0.008 | inactive: 0.135 | inactive: -0.102 | inactive: 0.039 |
| PUF60 isoform 2 (UniProt Q9UHX1) | inactive: -0.038 | inactive: -0.003 | inactive: 0.005 | active: 1.05 | – | inactive: -0.09 | inactive: -0.161 | inactive: -0.058 | inactive: -0.006 | inactive: -0.09 |
| PUS3 (UniProt Q9BZE2) | inactive: 0.008 | inactive: -0.085 | inactive: 0.013 | inactive: 0.148 | inactive: -0.03 | inactive: -0.234 | inactive: 0.019 | inactive: -0.087 | inactive: -0.005 | inactive: -0.185 |
| PUM2 (UniProt Q8TB72) | inactive: -0.009 | inactive: -0.101 | inactive: 0.054 | inactive: 0.094 | inactive: -0.044 | inactive: -0.15 | inactive: 0.031 | inactive: -0.136 | inactive: 0.034 | inactive: -0.016 |
| PSMC3 (UniProt P17980) | inactive: -0.012 | inactive: -0.009 | inactive: -0.004 | inactive: 0.044 | inactive: 0 | inactive: -0.07 | inactive: 0.003 | inactive: -0.014 | inactive: 0.02 | inactive: -0.041 |
| PTBP1 (UniProt P26599) | inactive: 0.007 | inactive: 0.003 | inactive: -0.02 | inactive: 0.022 | inactive: -0.053 | inactive: -0.014 | inactive: -0.054 | inactive: 0.035 | inactive: 0.026 | inactive: -0.024 |
| PTPN23 (UniProt Q9H3S7) | inactive: 0.003 | inactive: -0.028 | inactive: -0.014 | inactive: 0.005 | inactive: -0.023 | inactive: -0.031 | inactive: 0.013 | inactive: 0.016 | inactive: -0.032 | inactive: 0.023 |
| PTMS (UniProt P20962) | inactive: 0.029 | inactive: -0.018 | inactive: 0.012 | inactive: 0.016 | inactive: 0 | inactive: 0.025 | inactive: -0.009 | inactive: -0.058 | inactive: -0.044 | inactive: -0.056 |
| PSEN1 (UniProt P49768) | inactive: -0.022 | inactive: -0.017 | inactive: -0.043 | inactive: 0.223 | inactive: -0.007 | inactive: -0.091 | inactive: 0.044 | inactive: -0.081 | inactive: 0.021 | inactive: -0.085 |
| PSMD2 (UniProt Q13200) | inactive: -0.006 | inactive: 0.001 | inactive: -0.014 | inactive: 0.059 | inactive: 0.001 | inactive: -0.067 | inactive: -0.008 | inactive: 0.003 | inactive: -0.031 | inactive: -0.037 |
| PSME3 isoform 2 (UniProt P61289) | inactive: 0.009 | inactive: 0.008 | inactive: 0.054 | inactive: -0.018 | inactive: 0.04 | inactive: -0.015 | inactive: 0.025 | inactive: 0.014 | inactive: 0.015 | inactive: -0.035 |
| PTK2 (UniProt Q05397) | inactive: -0.116 | inactive: 0.038 | inactive: 0.414 | inactive: 0.007 | inactive: -0.076 | inactive: 0.396 | inactive: 0.026 | – | inactive: -0.008 | inactive: -0.117 |

Single records (already shown). Values in the order: log2 fold change (lapatinib) | log2 fold change (pictilisib) | log2 fold change (crizotinib) | log2 fold change [1] | log2 fold change (duvelisib) | log2 fold change (gandotinib) | log2 fold change (tozasertib) | log2 fold change (doramapimod) | log2 fold change (bafetinib) | log2 fold change [2]
PSMD2 (UniProt Q13200) is listed as inactive: -0.006 | inactive: 0.001 | inactive: -0.014 | inactive: 0.059 | inactive: 0.001 | inactive: -0.067 | inactive: -0.008 | inactive: 0.003 | inactive: -0.031 | inactive: -0.037
PSMB3 (UniProt P49720) is listed as inactive: -0.019 | inactive: -0.038 | inactive: 0.04 | inactive: -0.032 | inactive: 0.044 | inactive: 0.062 | inactive: 0.037 | inactive: -0.003 | inactive: 0.036 | inactive: 0.036
